The campaign covered roughly 330,000 compounds. About 7,700 (2.3%) were called active. This list was built around the results that the source calls inconclusive (neither active nor inactive); the mix of calls is not that of the screen. Calls follow the shape of the dose curve; as a rule, active = well fitted inhibition curve with a large enough effect; inconclusive = small, poorly fitted or top-dose-only effect, or effect the other way; inactive = flat fitted curve, though single readings scatter. Potencies of inconclusive entries are doubtful fits and often do not repeat.
Assay: qHTS screen for small molecules that inhibit ELG1-dependent DNA repair in human embryonic kidney (HEK293T) cells expressing luciferase-tagged ELG1; also: nearly all actives have a fitted effect of over 55% in size
Settings: HEK293T ELG1-luciferase reporter, luminescence, 16 h, DNA damage induced by 5-fluorouridine; activity change, negative = inhibition: at 46.1 µM (top of the series)
How it was run: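 Quantitative HTS, concentration-response format. 2,000 cells/well co-treated with 5-fluorouridine and compound, 16 hr in 5% CO2 at 37 °C; ONE-Glo luminescence read after 30 min.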
% is scaled to controls: 0 for no effect and ±100 for the full control effect; potency is read from the fitted curve at half-maximal effect.

Q: With `Cc1cc(=O)oc2cc(OCC(=O)NCCc3c[nH]c4ccc(F)cc34)ccc12` as the compound, how does the Potency read?
A: Its Potency is inconclusive: 29.1 µM [activator, single point].

Q: With `O=C(CSc1nnc(NC(=O)C2CC2)s1)NCc1ccco1` as the compound, how does the “activity change, negative = inhibition” value read?
A: The value was inactive: 6.99%.

Q: Which “activity change, negative = inhibition” value does the source give for `Cc1ccc(S(=O)(=O)NCc2c(-c3ccccc3)c3cc(Cl)ccc3[nH]c2=O)cc1` here?
A: The value was inactive: 0.692%.

Q: Which “activity change, negative = inhibition” value does the source give for `Cc1ccccc1C(=O)Nc1ccnn1C1CCN(C(=O)C2CCOC2)CC1` (stereo not given) here?
A: The value was inactive: -4.26%.

Q: With `CCc1c(C)nc(SCC(N)=O)c(C#N)c1C` as the compound, how does the “activity change, negative = inhibition” value read?
A: The value was inactive: -7.82%.

Q: Which Potency does the source give for `O=C(c1ccccc1)c1ccc(OCCOCCN2CCN(Cc3ccccc3)CC2)cc1` here?
A: The Potency was inconclusive: 23.1 µM [inhibitor, single point].

Q: With `N=c1oc2cc(O)ccc2cc1C(=O)Nc1ccc(Cl)cc1` as the compound, how does the Potency read?
A: The Potency was inconclusive: 2.59 µM [activator, partial curve].

Q: With `CN1/C(=C\C(=O)c2cccc(S(=O)(=O)N3CCCCC3)c2)C(C)(C)c2ccccc21` as the compound, how does the Potency read?
A: Its Potency is active: 18.4 µM.

Q: For `Cc1cccc(/C(N)=N/OC(=O)c2ccccc2Cl)c1`, which Potency is on record?
A: The Potency was inconclusive: 2.91 µM [activator, full curve].

Q: With `Cc1ccccc1S(=O)(=O)N(CC(O)CN1C(=O)NC(C)(C)C1=O)c1ccccc1` (stereo not given) as the compound, how does the Potency read?
A: The Potency was inconclusive: 23.1 µM [activator, partial curve, poor fit].

Q: Which Potency does the source give for `N/C(=N\N=C\c1ccc(O)cc1)c1nonc1N` here?
A: The Potency was inconclusive: 18.3 µM [activator, partial curve].

Q: Which Potency does the source give for `O=C(NC[C@H]1CCCO1)c1cccc2c1C(=O)c1ccc(-c3ccc(F)cc3OCc3ccccc3)cc1S2(=O)=O` here?
A: Its Potency is inconclusive: 6.51 µM [inhibitor, partial curve, poor fit].

Q: Which “activity change, negative = inhibition” value does the source give for `COc1ccc([N+](=O)[O-])cc1NC(=O)C(C)c1ccccc1` (stereo not given) here?
A: The value was inactive: -5.37%.

Q: Which Potency does the source give for `O=C(Cc1ccccc1F)Nc1ccccc1-c1ccccc1` here?
A: The Potency was inconclusive: 23.1 µM [activator, single point].

Q: For `COc1ccc(NC(=O)c2ccco2)cn1`, which Potency is on record?
A: The Potency was inconclusive: 29.1 µM [activator, single point].

Q: For `O=C1C(Cl)=C(N2CCN(Cc3ccccc3)CC2)C(=O)N1Cc1ccccc1`, which Potency is on record?
A: The Potency was inconclusive: 35.5 µM [inhibitor, partial curve, poor fit].

Q: Which “activity change, negative = inhibition” value does the source give for `CCN(CC)c1nc2cc(C)ccc2cc1/C=C(\C#N)C(N)=O` here?
A: Its value is inactive: 4.19%.

Q: For `CCc1cc(C(=O)NC2CCCc3c2cnn3-c2cccc(C)c2C)n(C)n1` (stereo not given), which Potency is on record?
A: The Potency was inconclusive: 0.0517 µM [inhibitor, full curve, poor fit].

Q: Which Potency does the source give for `C=CCOc1cccc(/C=C/c2nc3ccccc3c(=O)[nH]2)c1` here?
A: Its Potency is inconclusive: 3.26 µM [activator, full curve].

Q: For `CCOc1cccc(CNCCCSc2ncccn2)c1`, which “activity change, negative = inhibition” value is on record?
A: The value was inactive: 5.91%.

Q: For `O=C(N/N=C/c1c[nH]c2ccccc12)c1ccc(Cl)cc1`, which Potency is on record?
A: The Potency was inconclusive: 23.1 µM [activator, partial curve].

Q: Which Potency does the source give for `O=C(CN1C(=O)C2C3C=CC(C3)C2C1=O)Nc1ccc2c(c1)OCCO2` (stereo not given) here?
A: The Potency was inconclusive: 16.4 µM [activator, partial curve].

Q: Which “activity change, negative = inhibition” value does the source give for `CC(C)(C)NC(=O)C(c1ccc(F)cc1)N(C(=O)CCC(=O)Nc1ccccn1)C1CCCC1` (stereo not given) here?
A: Its value is inactive: -2.57%.

Q: With `CCn1c(SCC(=O)N/N=C(\C)c2ccncc2)nnc1-c1ccccc1` as the compound, how does the “activity change, negative = inhibition” value read?
A: The value was inactive: -7.44%.

Q: With `Cc1ccsc1C(=O)NNC(=O)C1C2C=CC(C2)C1C(=O)O` (stereo not given) as the compound, how does the Potency read?
A: The Potency was inconclusive: 16.4 µM [activator, partial curve].

Q: With `Cc1nnc(SCc2ccc(C(=O)O)cc2)s1` as the compound, how does the “activity change, negative = inhibition” value read?
A: The value was inactive: 7.1%.

Q: For `O=C(COC(=O)/C=C/c1ccc(OC(F)F)cc1)Nc1cccc(S(=O)(=O)N2CCOCC2)c1`, which “activity change, negative = inhibition” value is on record?
A: Its value is inactive: 1.18%.

Q: Which Potency does the source give for `Cc1n[nH]c(C)c1CCN(C)Cc1cn(C)nc1-c1ccc2c(c1)OCCO2` here?
A: Its Potency is inconclusive: 10.3 µM [activator, partial curve, poor fit].

Q: Which Potency does the source give for `CC(=O)c1cnn(-c2ccc(Cl)c(Cl)c2Cl)c1C` here?
A: Its Potency is inconclusive: 29.1 µM [inhibitor, single point].

Q: Which Potency does the source give for `CN(C(=O)CN1CCN(c2ccc([N+](=O)[O-])cn2)CC1)c1ccccc1` here?
A: The Potency was inconclusive: 13 µM [inhibitor, partial curve].

Q: With `O=C(c1c[nH]c2ccccc12)N1CCOCC1` as the compound, how does the Potency read?
A: The Potency was inconclusive: 9.2 µM [activator, partial curve, poor fit].

Q: For `Cc1ccc(S(=O)(=O)N2c3ccccc3OCC2C(C)(C)C)cc1` (stereo not given), which Potency is on record?
A: The Potency was inconclusive: 25.9 µM [inhibitor, single point].

Q: With `Oc1ccc(Br)cc1-c1ccnn1-c1ccccc1` as the compound, how does the Potency read?
A: The Potency was inconclusive: 0.891 µM [inhibitor, partial curve, poor fit].

Q: For `Cc1ccc(NC(=O)O/N=C/c2ccc(Br)cc2)cc1`, which “activity change, negative = inhibition” value is on record?
A: The value was inactive: 22.4%.

Q: Which Potency does the source give for `COc1ccc(NC(=O)CSc2ccc(-c3cccnc3)nn2)c(OC)c1` here?
A: The Potency was inconclusive: 5.17 µM [inhibitor, partial curve, poor fit].

Q: For `COc1cccc(C(=O)Nc2ccc(NC(=O)C3CCCCC3)nc2)c1`, which Potency is on record?
A: The Potency was inconclusive: 29.1 µM [inhibitor, single point].

Q: With `Nc1nonc1-c1noc(-c2ccc(Br)o2)n1` as the compound, how does the Potency read?
A: Its Potency is inconclusive: 20.6 µM [activator, single point].

Q: With `COc1cccc(/C=C/C(=O)c2ccc(NS(=O)(=O)c3ccc(C)cc3)cc2)c1` as the compound, how does the Potency read?
A: Its Potency is inconclusive: 20.6 µM [inhibitor, single point].

Q: For `COc1ccc2c(c1)c(C(C)=O)c(C)n2CCc1ccccc1`, which Potency is on record?
A: Its Potency is active: 8.2 µM.

Q: Which “activity change, negative = inhibition” value does the source give for `CN(C)C(=O)c1cnc(-c2ccccc2)nc1-c1ccccc1` here?
A: Its value is inactive: 11.6%.

Q: Which Potency does the source give for `Cc1cccc(C2CC3(CC(C)(C)NC(=S)N3)Oc3cc(O)ccc32)c1` (stereo not given) here?
A: The Potency was inconclusive: 16.4 µM [inhibitor, single point].

Q: With `COC(=O)COc1ccc(-c2nn(C)c(=O)c3ccccc23)cc1` as the compound, how does the “activity change, negative = inhibition” value read?
A: Its value is inactive: 1.11%.

Q: Which Potency does the source give for `COc1ccc(-c2nc(CS(=O)CC(=O)NC(C)CCc3ccccc3)c(C)o2)cc1OC` (stereo not given) here?
A: The Potency was active: 18.3 µM.

Q: Which Potency does the source give for `Cn1c(C2=C(O)CN(c3ccccc3)C2=N)nc2ccccc21` here?
A: Its Potency is inconclusive: 0.517 µM [inhibitor, partial curve, poor fit].

Q: For `C=CCOC(=O)/C(=C\C=C\c1ccccc1)NC(=O)c1ccccc1`, which Potency is on record?
A: The Potency was inconclusive: 32.6 µM [inhibitor, partial curve, poor fit].
